Results taken from article PMC11582362.
No constants are given. Whether binding was seen depends on the method and setting. For part of these data: Binding seen in cells or lysates may run through a third protein. Some binding calls cover weakened binding; strength is not graded here. Tags and fused reporters may be left off the sequences shown.

Columns and labels:
[1] = target: ADAR1-dsRBD3 interface mutant (V747A + D748Q + W768V + C773S), residues 708-801, uncleavable His6-tag (human) (UniProt P55265); assay: SEC-MALS; SEC-MALLS, BioSEC-3 column, 25 °C, 0.4 mL/min, 20 mM Na-phosphate pH 7.0, 100 mM NaCl, 2 mM 2-mercaptoethanol; His6-tag kept; both purified
[2] = target: ADAR1-dsRBD3 interface mutant (V747A + D748Q + W768V + C773S), residues 708-801, uncleavable His6-tag (human) (UniProt P55265); assay: SEC-SAXS; BioSEC-3 column, 15 °C, 0.3 mL/min, 20 mM Na-phosphate pH 7.0, 100 mM NaCl, 2 mM 2-mercaptoethanol; His6-tag kept; both purified
[3] = target: full length ADAR1 p110, wild type (FLAG-tagged and HA-tagged copies) (human) (UniProt P55265); assay: co-IP; FLAG- and HA-tagged ADAR1 variants co-expressed in HEK293T cells; lysate treated with RNase A; FLAG M2 magnetic beads, 2 h at 4 °C, IP buffer 25 mM Tris-HCl pH 7.4, 150 mM NaCl, 1 mM EDTA, 1% NP-40, 5% glycerol; western blot with anti-HA

binding [1] | binding [2] | binding [3] | Binder
no binding | no binding | – | ADAR1-dsRBD3 interface mutant (V747A + D748Q + W768V + C773S), residues 708-801, uncleavable His6-tag (domain or fragment, UniProt P55265 708-801) MMPNKVRKIGELVRYLNTNPVGGLLEYARSHGFAAEFKLAQQSGPPHEPKFVYQAKVGGRVFPAVSAHSKKQGKQEAADAALRVLIGENEKAER
– | – | binds | full length ADAR1 p110, wild type (FLAG-tagged and HA-tagged copies) (enzyme, UniProt P55265-5 1-931) MAEIKEKICDYLFNVSDSSALNLAKNIGLTKARDINAVLIDMERQGDVYRQGTTPPIWHLTDKKRERMQIKRNTNSVPETAPAAIPETKRNAEFLTCNIPTSNASNNMVTTEKVENGQEPVIKLENRQEARPEPARLKPPVHYNGPSKAGYVDFENGQWATDDIPDDLNSIRAAPGEFRAIMEMPSFYSHGLPRCSPYKKLTECQLKNPISGLLEYAQFASQTCEFNMIEQSGPPHEPRFKFQVVINGREFPPAEAGSKKVAKQDAAMKAMTILLEEAKAKDSGKSEESSHYSTEKESEKTAESQTPTPSATSFFSGKSPVTTLLECMHKLGNSCEFRLLSKEGPAHEPKFQYCVAVGAQTFPSVSAPSKKVAKQMAAEEAMKALHGEATNSMASDNQPEGMISESLDNLESMMPNKVRKIGELVRYLNTNPVGGLLEYARSHGFAAEFKLVDQSGPPHEPKFVYQAKVGGRWFPAVCAHSKKQGKQEAADAALRVLIGENEKAERMGFTEVTPVTGASLRRTMLLLSRSPEAQPKTLPLTGSTFHDQIAMLSHRCFNTLTNSFQPSLLGRKILAAIIMKKDSEDMGVVVSLGTGNRCVKGDSLSLKGETVNDCHAEIISRRGFIRFLYSELMKYNSQTAKDSIFEPAKGGEKLQIKKTVSFHLYISTAPCGDGALFDKSCSDRAMESTESRHYPVFENPKQGKLRTKVENGEGTIPVESSDIVPTWDGIRLGERLRTMSCSDKILRWNVLGLQGALLTHFLQPIYLKSVTLGYLFSQGHLTRAICCRVTRDGSAFEDGLRHPFIVNHPKVGRVSIYDSKRQSGKTKETSVNWCLADGYDLEILDGTRGTVDGPRNELSRVSKKNIFLLFKKLCSFRYRRDLLRLSYGEAKKAARDYETAKNYFKKGLKDMGYGNWISKPQEEKNFYLCPV
